These are yes or no findings as the source states them, for the method shown. Some binding calls cover weakened binding; strength is not graded here.
Tests used:
Experiment in all cases: two-hybrid
[1] = target: MDT-15ΔCT (aa 1-598) (C. elegans) (UniProt Q21955)
[2] = target: MDT-15-NT (aa 1-338) (C. elegans) (UniProt Q21955)
[3] = target: MDT-15-KIX (aa 1-124) (C. elegans) (UniProt Q21955)

Chains of the proteins cited; added tags and fusions are not shown. Lines headed by an entry give the natural chain unless they say otherwise; changes in a name come on top. Residues count along the entry.
UniProt Q21955: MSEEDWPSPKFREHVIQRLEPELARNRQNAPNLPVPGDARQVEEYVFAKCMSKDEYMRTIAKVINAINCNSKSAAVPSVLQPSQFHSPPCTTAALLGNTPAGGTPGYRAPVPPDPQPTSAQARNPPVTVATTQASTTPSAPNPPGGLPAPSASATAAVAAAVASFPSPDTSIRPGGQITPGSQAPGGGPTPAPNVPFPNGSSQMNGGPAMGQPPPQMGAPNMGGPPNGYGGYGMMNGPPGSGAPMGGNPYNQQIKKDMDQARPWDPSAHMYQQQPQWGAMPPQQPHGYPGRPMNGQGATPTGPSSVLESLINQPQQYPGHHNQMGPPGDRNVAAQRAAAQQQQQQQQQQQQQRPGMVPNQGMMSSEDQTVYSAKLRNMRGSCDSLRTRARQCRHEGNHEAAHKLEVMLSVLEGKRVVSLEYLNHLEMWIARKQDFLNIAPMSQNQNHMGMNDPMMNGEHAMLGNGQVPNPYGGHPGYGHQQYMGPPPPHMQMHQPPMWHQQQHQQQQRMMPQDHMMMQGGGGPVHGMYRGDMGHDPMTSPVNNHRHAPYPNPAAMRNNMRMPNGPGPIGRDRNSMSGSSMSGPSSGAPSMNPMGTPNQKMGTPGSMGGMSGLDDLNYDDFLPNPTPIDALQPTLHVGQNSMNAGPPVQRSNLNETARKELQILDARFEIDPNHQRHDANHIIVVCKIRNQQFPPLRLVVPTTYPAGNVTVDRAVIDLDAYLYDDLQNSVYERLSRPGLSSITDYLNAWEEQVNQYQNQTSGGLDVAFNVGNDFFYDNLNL
MDT-15ΔCT (aa 1-598): residues 1-598 of Q21955
MDT-15-NT (aa 1-338): residues 1-338 of Q21955
MDT-15-KIX (aa 1-124): residues 1-124 of Q21955

binding [1]: binds | binding [2]: binds | binding [3]: binds
B1: NHR-10 (protein, UniProt P41999 1-395)
chain: MTGGGPSSNNSSQPEEVCLVCSDISTGYHYGVPSCNGCKTFFRRTIMKNQTFSCQFQGKCPVDKSIRCACRHCRFEKCLQVGMDRNAIQQNRDPIGYTKRTRRYPPIKKVEASDECSPAMVSENDRSEDNFLTLLSSTEQKCCALRLAEYMPSRTLIEAVVSDCLLTDEVFMAEHAILSPRHRVTSLRFANQSDYHYWHERDWFVMIEWAKTLPVFQSLPFTDKLALLRHSAITYPSLVHVFNSPDHGLDTIVFPDGAYFDRTPEPTRPLGFNKKKYQMLDQLLKPMRSMEIDMTEFAAFKAIFFLNPDADDVDSNAKKTLSDGRSAITNALYRYMVKKKGAEDAGDRFGRLLLLGTVLATMAVEMKEAVLVADFFDQIQFSTFAKQLLFGIKTE
